According to PMC9170038, “Crowdsourced RNA design discovers diverse, reversible, efficient, self-contained molecular switches”:

What follows are sequences tested against T1, MS2 coat protein, dlFG mutant del68-81insG (Escherichia phage MS2) (UniProt P03612) (assay: binding assay). Settings: 4 mM Mg2+, FMN 200 uM; RNA-MaP array; 100 mM Tris-HCl pH 7.5, 80 mM KCl, 4 mM MgCl2, 0.1 mg/mL BSA, 1 mM DTT, 0.01 mg/mL yeast tRNA, 0.01% Tween-20; protein 1.5 nM to 3 uM; 37 C (Table S3); purified recombinant protein.
T1 sequence (looked up, limits assumed): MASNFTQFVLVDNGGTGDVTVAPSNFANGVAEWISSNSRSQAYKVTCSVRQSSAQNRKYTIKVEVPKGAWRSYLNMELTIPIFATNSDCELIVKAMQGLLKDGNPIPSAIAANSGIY
With “GGAAACUACGAGAAGGACAUGUGGUCCUUCAGUUACAUGAGGAUCACCCAUGUAGGAUAUCGUAGUUUCAGGAUCGUGAGAUCU [Eterna 6452587 (Inverted Small Loop Exclusion NG 1)]” the pKd was under 5.52.
Work on “GGACUGGACUAGAAGGGUGAUGCGCUCGCAGACACAGGAUAUAGUCACAUGAGGAUCACCCAUGUCGGUCCAAGUGAAGAAACU [Eterna 6425259 (Inverted Same State NG 1)]” yielded a pKd of under 5.52.
In the case of “UAGGACUUCGUAGGAUAUGUAUUUGAUUUCUACAUGAGGAUCACCCAUGUUUGCAUUUUUUUUUGACAGAAGGACGUGGUCCUA [Eterna 6431119 (Same State NG 2)]”, the pKd was under 5.52.

Same assay, conditions: 4 mM Mg2+, L-tryptophan 2.4 mM; RNA-MaP array; 100 mM Tris-HCl pH 7.5, 80 mM KCl, 4 mM MgCl2, 0.1 mg/mL BSA, 1 mM DTT, 0.01 mg/mL yeast tRNA, 0.01% Tween-20; protein 1.5 nM to 3 uM; 37 C (Table S3); purified recombinant protein
“UUAUAAGUACCGGUCCUCAGAUCCUCAUGACGAGGACCGGUACGGCCGCCACUCGAAACAUGAGGAUCACCCAUGUAAUAAUACC [Eterna 7639013 (Exclusion - Tryptophan A)]” showed a pKd of under 5.52.

Same assay, conditions: 4 mM Mg2+, no ligand; RNA-MaP array; 100 mM Tris-HCl pH 7.5, 80 mM KCl, 4 mM MgCl2, 0.1 mg/mL BSA, 1 mM DTT, 0.01 mg/mL yeast tRNA, 0.01% Tween-20; protein 1.5 nM to 3 uM; 37 C (Table S3); purified recombinant protein
Sequence “ACCGACACUUACAUGAGGAUCACCCAUGUGUGUAAUCGGACACAGGAUAUCCAUGGUAAGUAUCGGGAGAAGGGUGGAAAGAAA [Eterna 6148933 (Same State NG 3)]” has a pKd of under 5.52.
“CCCUUUAGAAAAGGGACAUGAGGAUCACCCAUGUAGGCUGCACAGGAUAUCGAUCGGAGGCGGUACGAGAAGGGUGAUGUCAUU [Eterna 6149047 (Same State NG 3)]” showed a pKd of under 5.52.
For “CCUCAUGUGGUGCUGCACAUGAGAGGUGAUACCAGCAUCGAAAGAUGCCCUUGGCAGCACCAACAUGAGGAUCACCCAUGUAAUA [Eterna 7709796 (Same State - Theophylline A)]”, the pKd was under 5.52.
For “UUGGGACUAUCAGGAUAUGGUGUAGCCCAGUAAAGGACAUGAGGAUCACCCAUGUACCAUUGGUACCAGAAGGGAUGAUCCUAC [Eterna 6461334 (Same State NG 2)]”, the pKd was under 5.52.
“UUUACAUGAGGAUCACCCAUGUGCCAUGAUACCAGACAUGAAAAUGUCCCUUGGCAGCAUGAGUGAUGCAUCCGAAAGGAUGUUU [Eterna 7610324 (Same State - Theophylline A)]” was tested, and the pKd was under 5.52.

pKd: −log10 of the molar value. Protein sequences can lack the tags named with them.
